We go through one molecule from PMC3665532.

For experiment [1], the target named is GST-fused mPro C-terminal domain of KCC3 (PP→QA). Put plainly: pull-down; GST fusion proteins immobilised on glutathione-sepharose beads; pre-cleared HeLa cell lysate; 1 h at 4°C; rinsed three times in RIPA buffer; Vav2 immunoblot; only the target purified. (A western blot detects proteins with antibodies after separation by electrophoresis.)
Experiment [2] has as its target GST-fused wild-type C-terminal domain of KCC3. Described as above.

These are yes or no findings as the source states them, for the method shown. In cells and extracts the contact can be indirect. A result given as binding can be weak or reduced; the word gives no strength.

B1: Vav2 (guanine nucleotide exchange factor), endogenous in HeLa cells (protein, UniProt P52735 1-878)
chain: MEQWRQCGRWLIDCKVLPPNHRVVWPSAVVFDLAQALRDGVLLCQLLHNLSPGSIDLKDINFRPQMSQFLCLKNIRTFLKVCHDKFGLRNSELFDPFDLFDVRDFGKVISAVSRLSLHSIAQNKGIRPFPSEETTENDDDVYRSLEELADEHDLGEDIYDCVPCEDGGDDIYEDIIKVEVQQPMIRYMQKMGMTEDDKRNCCLLEIQETEAKYYRTLEDIEKNYMSPLRLVLSPADMAAVFINLEDLIKVHHSFLRAIDVSVMVGGSTLAKVFLDFKERLLIYGEYCSHMEHAQNTLNQLLASREDFRQKVEECTLKVQDGKFKLQDLLVVPMQRVLKYHLLLKELLSHSAERPERQQLKEALEAMQDLAMYINEVKRDKETLRKISEFQSSIENLQVKLEEFGRPKIDGELKVRSIVNHTKQDRYLFLFDKVVIVCKRKGYSYELKEIIELLFHKMTDDPMNNKDVKKSHGKMWSYGFYLIHLQGKQGFQFFCKTEDMKRKWMEQFEMAMSNIKPDKANANHHSFQMYTFDKTTNCKACKMFLRGTFYQGYMCTKCGVGAHKECLEVIPPCKFTSPADLDASGAGPGPKMVAMQNYHGNPAPPGKPVLTFQTGDVLELLRGDPESPWWEGRLVQTRKSGYFPSSSVKPCPVDGRPPISRPPSREIDYTAYPWFAGNMERQQTDNLLKSHASGTYLIRERPAEAERFAISIKFNDEVKHIKVVEKDNWIHITEAKKFDSLLELVEYYQCHSLKESFKQLDTTLKYPYKSRERSASRASSRSPASCASYNFSFLSPQGLSFASQGPSAPFWSVFTPRVIGTAVARYNFAARDMRELSLREGDVVRIYSRIGGDQGWWKGETNGRIGWFPSTYVEEEGIQ
For the molecule B1, the binding entry in experiment [1] and in experiment [2] was “binds” each time.
